In article PMC4193777 (PLoS ONE, 2014):

Tested on: neutrophils
Test: Inhibition of FPR2 agonist-induced superoxide by pertussis toxin or kinase inhibitors
Type: cell-based, human
Settings: inhibitors 20 nM to 1 µM (1 µM shown), 15 min at 37°C; WKYMVM 50 nM, F2Pal10 500 nM; n = 3
Description: Human peripheral blood neutrophils were isolated from buffy coats from healthy blood donors using dextran sedimentation and Ficoll-Paque gradient centrifugation as described. The remaining erythrocytes were disrupted by hypotonic lysis, the neutrophils were washed twice, resuspended in KRG, and stored on melting ice until use. This isolation procedure permits cells to be purified with minimal granule mobilization.
The NADPH-oxidase activity was determined using isoluminol-enhanced chemiluminescence (CL), [27]. The CL activity was measured in a six-channel Biolumat LB 9505 (Berthold Co., Wildbad, Germany), using disposable 4-ml polypropylene tubes with a 900 µl reaction mixture containing 10^5 cells, isoluminol (2×10^−5 M) and HRP (2 U). The tubes were equilibrated in the Biolumat for 5 min at 37°C, after which the stimulus (100 µl) was added and the light emission was recorded continuously. […]
A. Primary human neutrophils were treated with pertussis toxin (PTX, 500 ng/ml final concentration) and samples were withdrawn at indicated time points. […] Abscissa, time of study (sec); ordinate, fluorescence (arbitrary unit). […]
The effects of these inhibitors were determined using different concentrations ranging from 20 nM to 1 µM.

`CN[C@@H]1C[C@H]2O[C@@](C)([C@@H]1OC)n1c3ccccc3c3c4c(c5c6ccccc6n2c5c31)C(=O)NC4` [Staurosporine] was tested, and the “inhibition of F2Pal10- and WKYMVM-induced superoxide by kinase inhibitor” value was “Very similar degrees of inhibition”.
